The list shows a part of the results.
compound: c1cn2cc(-c3ccc4cn[nH]c4c3)nc(Nc3ccc(N4CCOCC4)cc3)c2n1 [entospletinib]; test: log2 fold change, soluble protein after heating vs DMSO (PISA); higher = thermal stabilisation; K562 cells, 10 uM, 30 min; active = over 0.2 and 3.5 SD of the protein, either way, in both replicates (recomputed)
Method in brief: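 K562 cells at 2×10^6 cells/mL were treated with 10 μM compound for 30 min. Aliquots were heated for 3 min across 48°C-58°C, pooled, and extracted in PBS with 0.5% NP-40 at 4°C; soluble protein was the supernatant after 21,000xg for 90 min. Soluble protein was quantified by TMTpro 16plex LC-MS/MS with channel sums equalised, and reported as log2 fold change in thermal stability against DMSO controls, with values from duplicates.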

Amino acid sequences for entries named in this document (tags omitted). A change or cut given only in a name is not applied to a line headed by its entry.
UniProt Q8IYB5: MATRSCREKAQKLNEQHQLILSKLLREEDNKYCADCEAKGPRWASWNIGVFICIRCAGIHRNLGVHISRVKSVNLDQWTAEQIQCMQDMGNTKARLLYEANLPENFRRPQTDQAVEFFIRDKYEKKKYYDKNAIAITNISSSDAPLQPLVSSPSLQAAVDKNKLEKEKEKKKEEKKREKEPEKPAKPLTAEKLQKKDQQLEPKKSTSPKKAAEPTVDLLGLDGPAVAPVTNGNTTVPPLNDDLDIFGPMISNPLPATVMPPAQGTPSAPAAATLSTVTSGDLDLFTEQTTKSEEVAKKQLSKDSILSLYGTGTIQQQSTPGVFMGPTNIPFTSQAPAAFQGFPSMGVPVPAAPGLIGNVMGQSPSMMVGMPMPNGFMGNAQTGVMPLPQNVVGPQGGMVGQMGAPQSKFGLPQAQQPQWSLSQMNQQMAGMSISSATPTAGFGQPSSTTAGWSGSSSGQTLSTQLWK
UniProt P62308, whole entry, looked up: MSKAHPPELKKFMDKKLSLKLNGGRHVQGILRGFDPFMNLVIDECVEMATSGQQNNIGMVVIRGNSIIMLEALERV
UniProt P62314, whole entry, looked up: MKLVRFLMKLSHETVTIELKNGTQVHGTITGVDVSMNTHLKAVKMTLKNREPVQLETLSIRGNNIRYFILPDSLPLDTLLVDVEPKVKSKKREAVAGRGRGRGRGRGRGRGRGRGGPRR
UniProt P57768: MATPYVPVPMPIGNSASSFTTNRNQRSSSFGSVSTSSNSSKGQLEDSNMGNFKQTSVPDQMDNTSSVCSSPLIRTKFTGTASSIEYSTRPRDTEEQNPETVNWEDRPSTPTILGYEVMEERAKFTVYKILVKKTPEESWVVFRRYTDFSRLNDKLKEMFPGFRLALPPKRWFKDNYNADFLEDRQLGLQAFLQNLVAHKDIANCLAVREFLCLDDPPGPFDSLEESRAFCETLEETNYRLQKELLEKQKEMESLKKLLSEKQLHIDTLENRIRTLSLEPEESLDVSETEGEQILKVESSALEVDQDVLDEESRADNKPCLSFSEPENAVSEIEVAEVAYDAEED
UniProt Q7Z3B0: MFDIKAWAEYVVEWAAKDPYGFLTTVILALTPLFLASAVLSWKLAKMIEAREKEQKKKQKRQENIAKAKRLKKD
UniProt O00161: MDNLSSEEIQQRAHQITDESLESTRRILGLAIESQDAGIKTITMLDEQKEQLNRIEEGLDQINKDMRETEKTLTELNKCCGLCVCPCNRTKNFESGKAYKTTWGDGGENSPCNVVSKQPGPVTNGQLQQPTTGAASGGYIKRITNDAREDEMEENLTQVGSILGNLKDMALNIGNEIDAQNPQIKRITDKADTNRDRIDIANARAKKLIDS
UniProt Q9UQE7: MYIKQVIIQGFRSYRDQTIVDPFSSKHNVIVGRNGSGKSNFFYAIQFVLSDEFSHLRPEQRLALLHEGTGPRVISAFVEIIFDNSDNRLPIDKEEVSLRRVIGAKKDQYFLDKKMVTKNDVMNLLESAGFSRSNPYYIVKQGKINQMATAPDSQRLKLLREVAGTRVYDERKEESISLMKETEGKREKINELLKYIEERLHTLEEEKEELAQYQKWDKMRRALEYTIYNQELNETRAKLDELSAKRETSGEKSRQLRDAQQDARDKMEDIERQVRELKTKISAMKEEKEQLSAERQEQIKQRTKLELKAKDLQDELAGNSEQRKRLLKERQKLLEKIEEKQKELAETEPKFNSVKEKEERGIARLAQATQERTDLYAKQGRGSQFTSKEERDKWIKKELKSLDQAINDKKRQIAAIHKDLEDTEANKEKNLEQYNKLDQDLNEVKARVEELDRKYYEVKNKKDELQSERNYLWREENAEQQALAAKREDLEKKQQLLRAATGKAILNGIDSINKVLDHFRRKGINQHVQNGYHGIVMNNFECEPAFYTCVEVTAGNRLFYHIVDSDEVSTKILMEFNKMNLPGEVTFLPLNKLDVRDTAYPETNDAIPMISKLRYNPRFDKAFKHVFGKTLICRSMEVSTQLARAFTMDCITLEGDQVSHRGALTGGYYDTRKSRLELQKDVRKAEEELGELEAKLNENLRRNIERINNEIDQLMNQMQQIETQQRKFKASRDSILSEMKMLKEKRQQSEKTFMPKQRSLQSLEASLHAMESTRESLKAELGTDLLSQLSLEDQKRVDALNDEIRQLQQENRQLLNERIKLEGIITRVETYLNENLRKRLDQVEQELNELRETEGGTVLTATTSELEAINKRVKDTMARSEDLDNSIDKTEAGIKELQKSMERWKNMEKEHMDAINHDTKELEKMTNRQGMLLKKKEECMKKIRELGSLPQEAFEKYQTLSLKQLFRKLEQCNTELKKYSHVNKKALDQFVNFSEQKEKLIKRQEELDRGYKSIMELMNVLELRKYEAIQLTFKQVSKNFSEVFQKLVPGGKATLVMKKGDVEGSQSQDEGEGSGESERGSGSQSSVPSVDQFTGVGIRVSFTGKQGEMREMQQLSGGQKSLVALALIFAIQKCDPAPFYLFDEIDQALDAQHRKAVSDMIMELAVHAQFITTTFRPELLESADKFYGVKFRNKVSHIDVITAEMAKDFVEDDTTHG
UniProt P0DJ93: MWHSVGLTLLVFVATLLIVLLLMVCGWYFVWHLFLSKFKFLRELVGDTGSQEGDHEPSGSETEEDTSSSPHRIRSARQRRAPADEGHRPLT
UniProt P18583: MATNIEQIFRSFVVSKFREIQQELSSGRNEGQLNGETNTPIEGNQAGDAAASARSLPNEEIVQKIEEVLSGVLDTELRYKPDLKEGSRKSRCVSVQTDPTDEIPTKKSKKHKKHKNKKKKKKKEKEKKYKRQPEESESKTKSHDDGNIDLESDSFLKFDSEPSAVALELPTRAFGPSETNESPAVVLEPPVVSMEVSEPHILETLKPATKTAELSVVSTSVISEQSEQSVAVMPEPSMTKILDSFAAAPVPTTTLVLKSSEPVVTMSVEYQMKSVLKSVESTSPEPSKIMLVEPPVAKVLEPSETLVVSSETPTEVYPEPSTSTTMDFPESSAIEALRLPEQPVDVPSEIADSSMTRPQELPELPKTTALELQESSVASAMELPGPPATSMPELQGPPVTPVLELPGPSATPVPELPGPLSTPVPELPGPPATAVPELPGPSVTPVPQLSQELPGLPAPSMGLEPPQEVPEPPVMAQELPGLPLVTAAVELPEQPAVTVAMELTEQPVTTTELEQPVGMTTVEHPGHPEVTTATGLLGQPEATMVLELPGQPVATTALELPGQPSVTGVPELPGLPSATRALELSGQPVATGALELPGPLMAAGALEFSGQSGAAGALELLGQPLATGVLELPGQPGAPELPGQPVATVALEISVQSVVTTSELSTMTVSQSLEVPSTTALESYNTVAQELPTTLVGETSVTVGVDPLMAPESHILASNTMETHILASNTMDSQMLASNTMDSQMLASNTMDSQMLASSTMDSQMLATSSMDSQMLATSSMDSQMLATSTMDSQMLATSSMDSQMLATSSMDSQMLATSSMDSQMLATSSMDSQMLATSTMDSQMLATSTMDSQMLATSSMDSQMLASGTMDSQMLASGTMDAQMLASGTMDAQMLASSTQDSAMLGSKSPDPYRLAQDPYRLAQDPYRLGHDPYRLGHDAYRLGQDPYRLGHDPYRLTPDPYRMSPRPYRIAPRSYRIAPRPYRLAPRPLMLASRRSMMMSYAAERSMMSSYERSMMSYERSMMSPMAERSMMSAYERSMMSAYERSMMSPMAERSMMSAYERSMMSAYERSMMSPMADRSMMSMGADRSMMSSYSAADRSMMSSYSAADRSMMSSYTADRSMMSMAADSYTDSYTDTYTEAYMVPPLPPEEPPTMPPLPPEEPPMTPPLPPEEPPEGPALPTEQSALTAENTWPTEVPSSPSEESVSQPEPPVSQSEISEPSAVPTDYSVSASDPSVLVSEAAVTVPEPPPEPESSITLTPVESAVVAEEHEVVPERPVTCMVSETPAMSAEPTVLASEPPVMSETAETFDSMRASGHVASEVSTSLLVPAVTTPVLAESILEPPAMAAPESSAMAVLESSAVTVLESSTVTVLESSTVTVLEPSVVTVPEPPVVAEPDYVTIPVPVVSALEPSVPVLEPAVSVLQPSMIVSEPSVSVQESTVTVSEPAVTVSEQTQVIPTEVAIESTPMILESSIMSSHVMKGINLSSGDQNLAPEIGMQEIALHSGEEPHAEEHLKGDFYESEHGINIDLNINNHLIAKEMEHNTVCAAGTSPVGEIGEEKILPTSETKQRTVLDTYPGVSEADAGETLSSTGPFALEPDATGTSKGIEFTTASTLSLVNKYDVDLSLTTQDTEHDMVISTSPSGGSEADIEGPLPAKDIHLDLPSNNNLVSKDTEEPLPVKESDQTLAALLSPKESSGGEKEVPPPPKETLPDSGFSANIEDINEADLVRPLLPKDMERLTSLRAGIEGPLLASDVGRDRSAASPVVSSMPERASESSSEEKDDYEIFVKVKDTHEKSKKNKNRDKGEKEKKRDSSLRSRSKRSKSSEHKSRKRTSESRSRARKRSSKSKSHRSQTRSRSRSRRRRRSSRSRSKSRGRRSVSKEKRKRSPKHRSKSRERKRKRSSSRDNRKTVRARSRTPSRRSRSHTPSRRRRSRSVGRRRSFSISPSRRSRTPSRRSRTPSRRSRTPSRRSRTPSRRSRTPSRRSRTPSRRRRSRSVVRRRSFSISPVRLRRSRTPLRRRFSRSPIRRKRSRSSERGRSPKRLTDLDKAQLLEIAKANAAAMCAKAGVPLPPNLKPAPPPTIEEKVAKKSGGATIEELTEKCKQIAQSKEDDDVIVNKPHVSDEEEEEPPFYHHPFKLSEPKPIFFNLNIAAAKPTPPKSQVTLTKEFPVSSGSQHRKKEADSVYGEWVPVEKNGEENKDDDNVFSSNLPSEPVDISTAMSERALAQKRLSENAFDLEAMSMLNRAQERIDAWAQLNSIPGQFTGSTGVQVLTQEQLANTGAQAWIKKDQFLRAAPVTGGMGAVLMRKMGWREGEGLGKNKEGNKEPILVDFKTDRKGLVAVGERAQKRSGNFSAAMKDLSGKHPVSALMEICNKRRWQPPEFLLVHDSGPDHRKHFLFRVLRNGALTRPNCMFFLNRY
UniProt Q6GMV2: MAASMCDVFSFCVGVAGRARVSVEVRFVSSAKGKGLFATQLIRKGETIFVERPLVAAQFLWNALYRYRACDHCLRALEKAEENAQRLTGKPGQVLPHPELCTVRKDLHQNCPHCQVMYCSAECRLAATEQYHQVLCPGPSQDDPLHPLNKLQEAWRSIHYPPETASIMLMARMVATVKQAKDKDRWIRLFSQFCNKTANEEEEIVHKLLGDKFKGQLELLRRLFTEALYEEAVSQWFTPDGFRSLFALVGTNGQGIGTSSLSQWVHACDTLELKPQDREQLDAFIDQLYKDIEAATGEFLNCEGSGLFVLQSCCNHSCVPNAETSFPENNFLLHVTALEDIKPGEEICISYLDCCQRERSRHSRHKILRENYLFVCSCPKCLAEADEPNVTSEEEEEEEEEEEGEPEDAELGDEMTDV
UniProt Q92540: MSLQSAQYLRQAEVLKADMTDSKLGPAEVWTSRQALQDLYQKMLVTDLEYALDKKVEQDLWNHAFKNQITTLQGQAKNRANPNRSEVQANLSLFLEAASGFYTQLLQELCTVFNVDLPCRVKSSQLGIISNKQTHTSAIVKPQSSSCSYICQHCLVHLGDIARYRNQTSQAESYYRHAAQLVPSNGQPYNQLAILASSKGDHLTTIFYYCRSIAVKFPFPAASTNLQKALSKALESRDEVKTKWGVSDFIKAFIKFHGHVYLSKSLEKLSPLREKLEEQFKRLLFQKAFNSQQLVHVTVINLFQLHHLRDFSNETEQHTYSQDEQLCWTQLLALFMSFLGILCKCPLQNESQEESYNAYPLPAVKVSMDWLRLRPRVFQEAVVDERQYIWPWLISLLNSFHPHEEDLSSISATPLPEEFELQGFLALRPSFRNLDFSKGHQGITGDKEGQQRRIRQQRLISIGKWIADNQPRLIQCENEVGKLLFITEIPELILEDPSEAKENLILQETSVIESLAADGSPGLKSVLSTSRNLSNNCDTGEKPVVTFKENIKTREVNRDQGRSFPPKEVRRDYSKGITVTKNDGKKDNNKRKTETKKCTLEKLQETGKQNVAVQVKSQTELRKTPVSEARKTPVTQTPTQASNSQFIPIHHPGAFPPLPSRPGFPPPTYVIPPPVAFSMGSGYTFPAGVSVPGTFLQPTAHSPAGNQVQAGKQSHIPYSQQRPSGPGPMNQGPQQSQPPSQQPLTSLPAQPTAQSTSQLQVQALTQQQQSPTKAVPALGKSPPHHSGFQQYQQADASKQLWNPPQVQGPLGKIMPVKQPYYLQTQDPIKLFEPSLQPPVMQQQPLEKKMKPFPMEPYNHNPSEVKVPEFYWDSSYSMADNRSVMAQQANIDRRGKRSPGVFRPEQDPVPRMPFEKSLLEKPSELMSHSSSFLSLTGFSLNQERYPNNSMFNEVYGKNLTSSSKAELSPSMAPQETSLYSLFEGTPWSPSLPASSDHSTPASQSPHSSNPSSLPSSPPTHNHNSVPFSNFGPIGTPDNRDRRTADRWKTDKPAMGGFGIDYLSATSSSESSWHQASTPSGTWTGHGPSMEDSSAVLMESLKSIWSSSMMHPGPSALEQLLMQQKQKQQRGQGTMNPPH

log2 fold change, inactive:
SMIM26, A0A096LP01 -0.157
SNRPC (UniProt P09234) -0.012
SMAP1 isoform 2 (UniProt Q8IYB5) -0.015
SNRPG (UniProt P62308) 0.018
SMAGP (UniProt Q0VAQ4) 0.091
SNRNP70 (UniProt P08621) -0.057
SNRPD1 (UniProt P62314) 0.056
SNX16 (UniProt P57768) -0.073
SMC4 (UniProt Q9NTJ3) -0.008
SMIM15 (UniProt Q7Z3B0) 0.09
SNU13, A0A3B3IUA2 -0.096
SP6 (UniProt Q3SY56) -0.018
SNF8 (UniProt Q96H20) 0.036
SNAP23 (UniProt O00161) 0.014
SMC3 (UniProt Q9UQE7) -0.027
SMU1 isoform 2 (UniProt Q2TAY7) -0.342
SMIM13 (UniProt P0DJ93) 0.01
SON isoform 9 (UniProt P18583) 0.109
SNAP29 (UniProt O95721) 0.022
SMYD5 (UniProt Q6GMV2) -0.08
SMIM4 (UniProt Q8WVI0) 0.082
SMARCA2 (UniProt P51531) 0.015
SMG7 isoform 4 (UniProt Q92540) 0.024
SNRPB isoform 3 (UniProt P14678) 0.017
SMIM1 (UniProt B2RUZ4) -0.058
SMAD4 (UniProt Q13485) -0.044
SNRPC (UniProt Q5TAL2) -0.296

Quoted from the results shown (2 entries):
log2 fold change, inactive:
SNF8 (UniProt Q96H20) 0.036
SNAP23 (UniProt O00161) 0.014

From the supplement of paper PMC10849652
